PubChem BioAssay AID1224827 – NIAID – 2016
Shown is one part, drawn at random, of about 3,800 reagents. About 2,200 of all reagents (57%) were called active. 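Active means a strong reporter change in either direction; calls are per siRNA, not per gene; qiagen siRNAs gave weaker effects.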 A number with no mark means an inactive call. Reagents against one gene are numbered here.

- Aim: 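Retest primary hits on a TNF reporter with six siRNAs per gene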 (follow-up of hits)
- Cell system: RAW264.7 G9 mouse macrophage reporter clone
- Reagent: single siRNA against mouse genes, 100 nM siRNA
- Timing: siRNA for 2 days, then LPS about 16 h
- Conditions: bacterial lipopolysaccharide (LPS), 10 ng/ml, cells fixed after overnight (about 16 h) stimulation
- Detection: 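Imaged nuclear TNF reporter intensity, background removed, scaled per plate and to non-targeting control wells, as z-scores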
- Scale: TNF reporter z-score, mean and TNF reporter z-score: higher = stronger Tnf promoter reporter signal; gene median z, three same-vendor siRNAs: higher = stronger Tnf reporter signal for the gene
- Call rule: 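Active siRNA: replicate-mean z-score of 2 or more, or -2 or less; no calls for control wells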

target | reagent | TNF reporter z-score, mean | gene median z, three same-vendor siRNAs | TNF reporter z-score, repeat 1 | TNF reporter z-score, repeat 2
Or9m1 | 1 | 4.27 (active) | 1.43 | 2.73 | 5.8
Or9m1 | 2 | 1.43 | 1.43 | 0.577 | 2.29
Or9m1 | 3 | -1.83 | 1.43 | -2.26 | -1.41
Or9m1 | 4 | 2.72 (active) | 2.72 | 3.66 | 1.78
Or9m1 | 5 | 2.76 (active) | 2.72 | 4.74 | 0.779
Or9m1 | 6 | 1.73 | 2.72 | 3.88 | -0.422
Ctps2 | 1 | -2.08 (active) | -3.82 | -3.5 | -0.655
Ctps2 | 2 | -3.72 (active) | -3.82 | -3.01 | -4.43
Ctps2 | 3 | -4.77 (active) | -3.82 | -4.13 | -5.41
Ctps2 | 4 | 1.7 | 1.33 | 2.88 | 0.517
Ctps2 | 5 | 1.56 | 1.33 | 3.09 | 0.0196
Ctps2 | 6 | 0.971 | 1.33 | 2.15 | -0.207
Fga | 1 | -2.14 (active) | -3.42 | -1.84 | -2.44
Fga | 2 | -3.62 (active) | -3.42 | -3.99 | -3.25
Fga | 3 | -3.66 (active) | -3.42 | -3.59 | -3.73
Fga | 4 | 2.44 (active) | 0.752 | 4.4 | 0.476
Fga | 5 | 1.13 | 0.752 | 2.73 | -0.472
Fga | 6 | 0.295 | 0.752 | 1.03 | -0.439

Ordered by “gene median z, three same-vendor siRNAs” (low to high): 3 of the entries above
target | reagent | TNF reporter z-score, mean | gene median z, three same-vendor siRNAs | TNF reporter z-score, repeat 1 | TNF reporter z-score, repeat 2
Fga | 1 | -2.14 (active) | -3.42 | -1.84 | -2.44
Fga | 2 | -3.62 (active) | -3.42 | -3.99 | -3.25
Fga | 3 | -3.66 (active) | -3.42 | -3.59 | -3.73

The list goes on.
target | reagent | TNF reporter z-score, mean | gene median z, three same-vendor siRNAs | TNF reporter z-score, repeat 1 | TNF reporter z-score, repeat 2
Gsc2 | 1 | 2.64 (active) | 1.07 | 2.62 | 2.66
Gsc2 | 2 | 1.07 | 1.07 | 1.6 | 0.532
Gsc2 | 3 | -0.586 | 1.07 | 0.537 | -1.71
Dffa | 1 | -1.62 | -2.65 | -2 | -1.23
Dffa | 2 | -2.56 (active) | -2.65 | -3.3 | -1.82
Dffa | 3 | -4.25 (active) | -2.65 | -4.49 | -4.02
Dffa | 4 | 1 | -1.18 | 4.55 | -2.55
Dffa | 5 | -1.18 | -1.18 | -0.795 | -1.56
Dffa | 6 | -1.53 | -1.18 | -0.0924 | -2.97
